# Test results published in PubChem BioAssay AID540256 (National Center for Advancing Translational Sciences (NCATS), 2011).
# Among all 300,000 compounds or so, about 3,700 (1.2%) were called active. This list was built around the results that the source calls inconclusive (neither active nor inactive); the mix of calls is not that of the screen. The call rests on the fitted dose curve; tested in HEK293 cells. Potencies of inconclusive entries are doubtful fits and often do not repeat.
# Test: qHTS for Inhibitors of binding or entry into cells for Lassa Virus; further: nearly all actives have a fitted effect of over 50% in size
# Conditions: Lassa virus pseudotype entry inhibition, cell reporter; activity change, negative = inhibition: at 37.9 µM (top of the series) unless noted
# On the % scale 0 is the no-effect control and ±100 the full control effect; potency means the concentration at half of the fitted maximal effect.
SMILES,Potency,"activity change, negative = inhibition"
CCOC(=O)c1cnc(SC)nc1Oc1cccc(NS(=O)(=O)c2ccc(F)cc2)c1,"inconclusive: 23.1 µM [inhibitor, single point]",
O=C(Nc1ccccc1-c1ccccc1)c1ccc(Cl)c([N+](=O)[O-])c1,active: 23.1 µM,
CCC(C(=O)Nc1ccc2c(c1)OCCO2)c1ccccc1 (stereo unspecified),"inconclusive: 5.62 µM [activator, partial curve, poor fit]",
COc1ccc(CCN(Cc2cccs2)S(=O)(=O)c2ccc(-n3cnnn3)cc2)cc1OC,"inconclusive: 1.12 µM [inhibitor, full curve, poor fit]",
O=C1CSC(c2cccc(F)c2)N1c1c(F)cccc1F (stereo unspecified),,inactive: 10.6% [at 46.1 µM]
Cc1[nH]c2ccccc2c1C(=O)C(=O)N1CCN(C)CC1,"inconclusive: 1.78 µM [inhibitor, partial curve, poor fit]",
O=C(Nc1cccnc1)Nc1ccccc1Cl,"inconclusive: 10.3 µM [activator, partial curve]",
COC(=O)C1=C(C(=O)OC)[C@@H]2N(C)c3ccc(OC)cc3[C@@]23C[C@@H](C(=O)OC)N(C(=O)c2ccco2)C3=N1,"inconclusive: 0.0211 µM [inhibitor, full curve]",
COc1cc(/C=N/NC(=O)c2ccc(NC(=O)C3CCCCC3)cc2)ccc1O,"inconclusive: 7.94 µM [inhibitor, partial curve, poor fit]",
C=CCn1c(NCc2ccc(N(C)C)cc2)nc2ccccc21,"inconclusive: 32.6 µM [activator, single point]",
COc1cccc(/C=N/NC(=O)c2[nH]nc3c2CCc2ccccc2-3)c1,"inconclusive: 5.62 µM [inhibitor, full curve]",
O=C(CSc1ncnc2c1cnn2-c1ccc(F)cc1)NC1CCCC1,"inconclusive: 3.98 µM [inhibitor, full curve, poor fit]",
Cc1cc(C(=O)CN2C(=O)C(=O)N(C3CCCC3)C2=O)c(C)n1-c1ccc(F)cc1,"inconclusive: 10 µM [inhibitor, partial curve, poor fit]",
C/C(=N\NC(=O)COc1ccc(C)cc1C(C)C)c1ccc(-n2ccnc2)cc1,"inconclusive: 35.5 µM [inhibitor, single point]",
COc1ccc(N2CCN(C(=O)c3ccc4nc(N5CCC(C)CC5)sc4c3)CC2)cc1,"inconclusive: 1.58 µM [activator, partial curve, poor fit]",
CCc1cccc(NC(=O)CN2CCCN(Cc3cccc(C)c3)S2(=O)=O)c1,"inconclusive: 35.5 µM [inhibitor, single point]",

# Laid out differently: entries from further up.
SMILES	Potency	activity change, negative = inhibition
COc1ccc(CCN(Cc2cccs2)S(=O)(=O)c2ccc(-n3cnnn3)cc2)cc1OC	inconclusive: 1.12 µM [inhibitor, full curve, poor fit]	
CCc1cccc(NC(=O)CN2CCCN(Cc3cccc(C)c3)S2(=O)=O)c1	inconclusive: 35.5 µM [inhibitor, single point]	
